Reference: PubChem BioAssay AID2685 (National Center for Advancing Translational Sciences (NCATS), 2010)
Out of some 320,000 compounds screened, about 2,100 (0.66%) were called active. The inconclusive results got no clear call from the source; some entries with a clear call stand among them for comparison. Calls come from the whole dose curve; as a rule, active = well fitted inhibition curve with a large enough effect in the signal ratio, with a control signal flat (not every such curve was filed as active); inconclusive = small, poorly fitted or top-dose-only effect, or effect the other way, or a change in a side signal; inactive = flat fitted curve, though single readings scatter; the % refers to the signal ratio. Potencies beside an inconclusive call are fits to weak or partial responses and may not hold up.
% is set by controls: 0 for no effect and ±100 for the full control effect; potency is the fitted concentration of half-maximal effect.

Assay: qHTS Assay for Lipid Storage Modulators in Drosophila S3 Cells
Conditions: BODIPY lipid droplet fluorescence, 18-24 h, cells fed with added oleic acid; lipid storage change, negative = inhibition: at 46.1 µM (top of the series) unless noted
How it was run: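 Laser-scanning cytometry quantifies lipid droplet accumulation (500–530 nm total intensity; droplet/cell object ratio) in oleic acid-fed (400 uM added) Drosophila S3 cells treated with a concentration series. 20 uM Triacsin C defined 100% inhibition.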
For `COc1cc(-c2nc(CN(C)Cc3nnc(C)o3)c(C)o2)ccc1F`, the Potency was inconclusive: 6.51 µM [falling, single point].
For `CCCc1cc(=O)[nH]c2nnc(SCC(=O)Nc3cccc(NC(C)=O)c3)n12`, the lipid storage change, negative = inhibition was inconclusive: -41.2% [at 0.0737 µM].
For `Cn1c(=O)c2cc(S(=O)(=O)NCCC(=O)Nc3ccc(F)cc3F)ccc2n(C)c1=O`, the lipid storage change, negative = inhibition was inconclusive: 3.63%.
In the case of `CSc1cccc(NC(=O)CSc2ccc(Cl)cc2)c1`, the Potency is reported as inconclusive: 20.6 µM [rising, single point].
For `N#Cc1c(SCC(N)=O)nc2c(c1-c1ccncc1)CCCC2`, the lipid storage change, negative = inhibition was inconclusive: 23.5%.
With `CC(C)(C)NC(=O)C(=O)N/N=C/c1ccc(Br)cc1` the lipid storage change, negative = inhibition was inconclusive: -45.6%.
For `CCCn1c(C)nnc1SCC(=O)NC1CCCCC1`, the lipid storage change, negative = inhibition was inconclusive: 38.3% [at 0.00295 µM].
For `CC1CCN(C(=O)CN2C(=O)C(=O)c3ccccc32)CC1`, the lipid storage change, negative = inhibition was inconclusive: -3.82%.
In the case of `CN(C)/C=C1\C(=O)N(c2ccc(Cl)cc2)CS1(=O)=O`, the Potency is reported as inconclusive: 0.651 µM [activator, single point].
For `CCOCCN1CCN(c2c(C)c(C)nc3cc(-c4cc(OC)cc(OC)c4)nn23)CC1`, the lipid storage change, negative = inhibition was inconclusive: 229%.
For `O=C(NC1CCCCC1)C(c1ccc(F)cc1)N(C(=O)c1csnn1)C1CCCC1` (stereo not drawn), the Potency was inconclusive: 29.1 µM [activator, single point].
For `CCCNC1=C(N(C(C)=O)c2cccc(F)c2)C(=O)c2ccccc2C1=O`, the lipid storage change, negative = inhibition was inconclusive: -25.3%.
For `O=C(O)c1ccc(N2CCN(c3ccc(Cl)cc3)CC2)c([N+](=O)[O-])c1`, the lipid storage change, negative = inhibition was inconclusive: 10.8%.
In the case of `COc1cccc2cc(C(=O)NCCN3CCOCC3)oc12`, the Potency is reported as inconclusive: 0.411 µM [falling, single point].
For `Cc1ccc(N=c2ssnc2Cl)cc1`, the Potency was inconclusive: 29.1 µM [cytotoxic, single point].
With `O=C(NCC1CC1)c1onc(CSc2ccc(F)cc2)c1C(=O)NCC1CC1` the lipid storage change, negative = inhibition was “inactive”.
In the case of `Cc1snc(S(=O)(=O)/C(C#N)=N/Nc2ccc(C(F)(F)F)cc2)c1C#N`, the Potency is reported as inconclusive: 7.31 µM [rising, partial curve].
In the case of `CC(NC(=O)Cc1cccc(C(F)(F)F)c1)c1ccc(F)cc1` (stereo not drawn), the lipid storage change, negative = inhibition is reported as inconclusive: 10.1%.
For `CC(=O)Nc1ccc(S(=O)(=O)N2CCN(C(=O)c3ncoc3-c3cccc(F)c3)CC2)cc1`, the lipid storage change, negative = inhibition was inconclusive: -112%.
For `COc1cccc(C(=O)Nc2ccc3ccccc3c2)c1`, the lipid storage change, negative = inhibition was “inactive”.
For `CC1CCN(C(=O)COC(=O)c2cc(Cl)cc(Cl)c2N)CC1`, the lipid storage change, negative = inhibition was inconclusive: -0.108%.
For `Cc1c(Cl)cccc1NC(=O)C1C2C=CC(C2)C1C(=O)O` (stereo not drawn), the lipid storage change, negative = inhibition was inconclusive: 15.2%.
In the case of `O=c1c2ccccc2cnn1Cc1n[nH]c(=S)n1-c1ccc(F)cc1`, the lipid storage change, negative = inhibition is reported as inconclusive: 2.03%.
For `COc1ccc2c3c([nH]c2c1)C1CC2C(CC(O)C(OC)C2CO)CN1CC3` (stereo not drawn), the lipid storage change, negative = inhibition was inconclusive: 30.9%.
In the case of `COc1cccc(C(=O)NCC2(c3ccc(OC)c(OC)c3)CCCC2)c1`, the lipid storage change, negative = inhibition is reported as inconclusive: 19%.
For `Nc1ccc2oc(-c3ccccc3Cl)cc(=O)c2c1O`, the Potency was inconclusive: 2.31 µM [activator, partial curve].
In the case of `COc1ccc(-n2c(=O)c3ccccc3n(CC(=O)NC3CCCCC3)c2=O)cc1OC`, the lipid storage change, negative = inhibition is reported as inconclusive: -42.6%.
With `Cc1cc(C)c(S(=O)(=O)NCCC2CCCN2C)c(C)c1` (stereo not drawn) the Potency was inconclusive: 4.11 µM [cytotoxic, full curve, poor fit].
With `COC(=O)c1cn(CC(=O)Nc2ccc(OC)cc2)c2ccccc12` the lipid storage change, negative = inhibition was inconclusive: 19.7%.
In the case of `CN(C)CCC#CC(O)(c1ccccc1)c1ccccc1`, the Potency is reported as inconclusive: 6.51 µM [falling, single point].
For `Cc1c(NC(=O)CSCc2c(F)cccc2Cl)c(=O)n(-c2ccccc2)n1C`, the lipid storage change, negative = inhibition was “inactive”.
For `CSc1ccccc1C(=O)Nc1ccc(C)cc1C`, the Potency was inconclusive: 29.1 µM [activator, single point].
In the case of `O=C(NCc1ccccc1Cl)C1CCN(C(=O)c2sccc2-n2cccc2)CC1`, the Potency is reported as inconclusive: 29.1 µM [rising, single point].
In the case of `NS(=O)(=O)c1ccc(CCNc2nc(CN3CCCCC3)nc3sc4c(c23)CCC4)cc1`, the lipid storage change, negative = inhibition is reported as inconclusive: -23%.
In the case of `COc1cc(/C=C2\SC(N3CCc4ccccc4C3)=NC2=O)cc(OC)c1OC`, the lipid storage change, negative = inhibition is reported as “inactive”.
With `Cc1onc(-c2ccncc2)c1C(=O)O` the Potency was active: 20.6 µM.
For `CCc1nc2ccc(C(=O)N(C)CC(=O)Nc3ccc(F)c(F)c3F)cc2nc1CC`, the lipid storage change, negative = inhibition was “inconclusive”.
With `COc1cc(CCC(=O)NCc2ccc3c(c2)OCO3)cc(OC)c1OC` the Potency was inconclusive: 29.1 µM [falling, single point].
For `O=C(CSc1nc(-c2ccccc2)cs1)Nc1ccccc1[N+](=O)[O-]`, the lipid storage change, negative = inhibition was inconclusive: -5.35%.
For `Oc1ccc(Br)cc1-c1nc2cnccn2c1NC1CCCC1`, the Potency was inconclusive: 3.26 µM [activator, partial curve].
With `CN(Cc1ccc(C(C)(C)C)cc1)C(=O)Cc1ccc(S(=O)(=O)N2CCOCC2)s1` the Potency was inconclusive: 32.6 µM [falling, partial curve, poor fit].
With `N=c1sccn1CC(=O)Nc1ccc(Cl)cc1[N+](=O)[O-]` the lipid storage change, negative = inhibition was inconclusive: 1.85%.
With `COc1cc2c(cc1NC(=O)Nc1cccc(C)c1)oc1ccccc12` the Potency was inconclusive: 7.31 µM [activator, partial curve].
With `COc1cccc(NC(=O)CC(c2ccc(OC(C)C)cc2)c2ccccc2OC)c1` (stereo not drawn) the lipid storage change, negative = inhibition was inconclusive: 11.5%.
With `CC(=O)N1CCN(C(=O)C(Cc2ccccc2)NC(=O)c2ccccc2)CC1` (stereo not drawn) the lipid storage change, negative = inhibition was inconclusive: 14.3%.
In the case of `Cc1ccc(CNC(=O)CN2CCN(Cc3ccc(C)cc3)C2=O)cc1`, the Potency is reported as inconclusive: 18.4 µM [falling, single point].
In the case of `O=C(O)c1ccc(C2(c3ccc(C(=O)O)cc3)OC(=O)c3ccccc32)cc1`, the Potency is reported as inconclusive: 0.0517 µM [activator, full curve, poor fit].
In the case of `O=C(CCC1CCCC1)Nc1cccn(Cc2ccccc2Br)c1=O`, the Potency is reported as inconclusive: 0.92 µM [activator, full curve, poor fit].
